Results deposited as PubChem BioAssay AID1259254 (NCATS, 2017).
The deposit covers about 59,000 reagents; shown is an unselected part. About 1,550 of them (2.6%) count as active. 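G2 share is only a proxy for re-replication; each gene was hit by three separate siRNAs, and active genes were retested.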 Reagents against one gene are numbered here. Not all columns of the deposit are shown. Not stated in the record: the amount of reagent.

- Purpose: 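Finding genes that stop cells copying their DNA twice in one cycle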 (primary screen)
- Cells: human HCT116 colorectal cancer cells
- Knock-down reagent: single siRNA against human genes
- Time to read-out: 3 days
- Read-out: 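Nuclei stained with Hoechst and imaged; cell-cycle phase assigned by DNA content; G2 share scaled per plate, non-targeting siRNA 0%, GMNN siRNA 100%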
- Scale: G2 robust z-score: higher = more G2 cells, more excess DNA replication
- Call rule: 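Active siRNAs have a G2 robust z of 5 or more median absolute deviations over the median, which in these data means about 38% or higher of GMNN control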

G2 robust z-score, by gene and reagent
NSRP1: #1 0.348 inactive; #2 0.403 inactive; #3 -0.568 inactive
CDKN2A: #1 1.34 inactive; #2 -0.152 inactive; #3 1.71 inactive
LCN15: #1 2.4 inactive; #2 0.198 inactive; #3 -1.05 inactive
NLRP5: #1 0.68 inactive; #2 -0.972 inactive; #3 -0.694 inactive
TUBA8: #1 9.28 active; #2 0.976 inactive; #3 -0.777 inactive
TMEM175: #1 1.78 inactive; #2 -0.915 inactive; #3 1.66 inactive
CABP5: #1 -0.535 inactive; #2 -0.255 inactive; #3 -0.965 inactive
FSD1: #1 -0.24 inactive; #2 -1.08 inactive; #3 1.02 inactive
UNC13D: #1 -0.857 inactive; #2 -0.0867 inactive; #3 0.263 inactive
CD2: #1 -0.927 inactive; #2 4.45 inactive; #3 -1.75 inactive
FAM135B: #1 -1 inactive; #2 2.63 inactive; #3 -0.35 inactive
RUNDC1: #1 -0.000571 inactive; #2 0.621 inactive; #3 -0.769 inactive
SPATA31F2P: #1 0.341 inactive; #2 -0.61 inactive; #3 -0.58 inactive
H2AC17: #1 -0.19 inactive; #2 2.72 inactive; #3 0.83 inactive
PGAM1: #1 0.302 inactive; #2 -0.375 inactive; #3 0.872 inactive
CDH15: #1 0.194 inactive; #2 -0.631 inactive; #3 -1.2 inactive
BMP10: #1 -0.646 inactive; #2 0.229 inactive; #3 -0.662 inactive
TRPC7: #1 4.72 inactive; #2 -0.346 inactive; #3 -0.739 inactive
CHST10: #1 1.48 inactive; #2 0 inactive; #3 0.198 inactive
ZNF326: #1 -0.6 inactive; #2 1.84 inactive; #3 -1.01 inactive
ANKRD45: #1 -0.375 inactive; #2 -0.795 inactive; #3 2.36 inactive
IRF7: #1 0.24 inactive; #2 0.718 inactive; #3 1.73 inactive
TPO: #1 -0.823 inactive; #2 -0.537 inactive; #3 0.43 inactive

Laid out differently: entries from further up
RUNDC1 #1: G2 robust z-score = -0.000571; call = inactive
RUNDC1 #2: G2 robust z-score = 0.621; call = inactive
RUNDC1 #3: G2 robust z-score = -0.769; call = inactive
SPATA31F2P #1: G2 robust z-score = 0.341; call = inactive
SPATA31F2P #2: G2 robust z-score = -0.61; call = inactive
SPATA31F2P #3: G2 robust z-score = -0.58; call = inactive
H2AC17 #1: G2 robust z-score = -0.19; call = inactive
H2AC17 #2: G2 robust z-score = 2.72; call = inactive
H2AC17 #3: G2 robust z-score = 0.83; call = inactive
PGAM1 #1: G2 robust z-score = 0.302; call = inactive
